Source: article PMC4824898
Results are given in words; binding and its absence hold for the method and conditions named. For some assays here: Where a sequence is shown, tags or fusion partners need not be part of it.

How the values were obtained:
[1] = target: calcium-binding domain (EF) of S. pombe α-actinin (Schizosaccharomyces pombe) (UniProt O13728); test: SEC; gel filtration on Superdex 200 10/300GL in 50 mM Tris-HCl, pH 7.6, 200 mM KCl (also Sephacryl S-400HR in 25 mM sodium phosphate, pH 7.6, 150 mM NaCl); elution compared with reference proteins; dimer formation judged from apparent size; both purified
[2] = target: calcium-binding domain of S. pombe α-actinin with C-terminal 6xHis-tag (EF-his) (Schizosaccharomyces pombe) (UniProt O13728); test: as above

B1: calcium-binding domain (EF) of S. pombe α-actinin (domain or fragment, UniProt O13728 477-621)
chain: EKRTLSKQELDGITKVFRHFEKKKSNMLNEVEFYAALASLGLVYDTEEGTALFHRAANSEEGVTYERFTEIVMEELEDRDSARQVLYAFCDVADGKSYVTSDDLLRSQVRPNIVKFLECNMNKHSEGLDYLTWIKQLLAEDKEIV
- binding [1]: no binding

B2: calcium-binding domain of S. pombe α-actinin with C-terminal 6xHis-tag (EF-his) (domain or fragment, UniProt O13728 477-621)
chain: B1 chain
- binding [2]: no binding
